Patent US20240114907A1, “STABILIZED CONAZOLE COMPOSITION” (UPL CORPORATION LIMITED, priority 2019, published 2024)
At least one read-out could not be matched to a standard name with certainty. Peptide text beside a SMILES is read from it.

Test: Application recovery of prothioconazole (free prothioconazole in tank mix, HPLC)
Assay type: physicochemical
Conditions: tank mix of comparative Example 6 with de-complexing agent

| SMILES | Application recovery Prothioconazole (0.1% in tank mix) [%] | Application recovery Prothioconazole (0.5% in tank mix) [%] |
| --- | --- | --- |
| C[C@H](N)C(=O)N[C@@H](C)C(=O)O [Alanylalanine] (H-Ala-Ala-OH) | 58 | 82 |
| NCCCC[C@H](N)C(=O)O [Lysine] | 65 | 92 |
